PubChem BioAssay AID1259424 | University of Nebraska Medical Center | 2018

Aim: 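Seek colon cancer survival genes behaving like KSR1, using a six-gene signature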 (primary screen)
Cells: human HCT116 colon cancer cells
Knock-down reagent: siRNA pool against human genes, 50 nM
Measured: 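Log2 levels of six mRNAs (branched-DNA multiplex), adjusted by two reference genes and the non-targeting median, then scored against the average KSR1 knockdown pattern as Pearson r and euclidean distance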
Scale: mean correlation with KSR1 profile: higher = expression change more like KSR1 knockdown; mean distance from KSR1 profile: higher = expression change less like KSR1 knockdown
This is an unselected part of about 14,000 reagents. 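Higher correlation or smaller distance means closer resemblance to KSR1 loss; control wells, including KSR1 knockdowns, recur on many plates.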 Further read-outs or replicates are left out here. Reagent sequences are not shown. Not stated in the record: the time to read-out.

gene | mean correlation with KSR1 profile | mean distance from KSR1 profile
WDR55 | 0.142 | 2.38
SCN7A | -0.869 | 2.9
CCDC28A | 0.213 | 1.73
PCNP | -0.309 | 1.66
TENM2 | 0.142 | 2.81
PSMA7 | 0.0488 | 4.33
NR1H2 | -0.855 | 1.31
AK7 | -0.0675 | 2.48
ATP11B | 0.23 | 1.83
GK | 0.0702 | 2.37
CBX6 | -0.386 | 2.24
CLDN15 | -0.525 | 2.3
PAPSS1 | -0.494 | 2.81
CAMKK1 | 0.159 | 3.17
AZGP1 | -0.155 | 3.14
MAGEC2 | -0.134 | 1.72
NUP58 | -0.611 | 2.82
NRXN3 | -0.5 | 0.835
HOXD9 | -0.0623 | 1.59
PLSCR3 | 0.424 | 1.44

Part of the list above, reformatted:
NRXN3 | mean correlation with KSR1 profile: -0.5; mean distance from KSR1 profile: 0.835
HOXD9 | mean correlation with KSR1 profile: -0.0623; mean distance from KSR1 profile: 1.59
PLSCR3 | mean correlation with KSR1 profile: 0.424; mean distance from KSR1 profile: 1.44
